Results as given in PubChem BioAssay AID1347075 (National Center for Advancing Translational Sciences (NCATS), 2019).
In all, about 400,000 compounds went through this assay and about 5,500 (1.4%) were called active. Inconclusive results, whose numbers are uncertain, are shown with a selection of clear calls. The call rests on the fitted dose curve; in most records, active means well fitted cell-killing curve with a large enough effect; inconclusive means small, poorly fitted or top-dose-only effect, or effect the other way; inactive means flat fitted curve, though single readings scatter. Potencies beside an inconclusive call are fits to weak or partial responses and may not hold up.

assay: qHTS assay for MDR1-selective chemotherapeutics: Primary screen using the parental adenocarcinoma cell KB-3-1; conditions: KB-3-1 viability, CellTiter-Glo ATP luminescence, 72 h; series mostly up to 46.1 µM; further: nearly all actives have a fitted effect of over 60% in size
Outline: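 Cells are dispensed, compounds pinned in, plates held at 37 °C for 72 h, then CellTiter-Glo is added and luminescence read after 10 minutes. Cell line: parental KB-3-1 in phenol-red-free DMEM, 10% FBS.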
Potency means the concentration at half of the fitted maximal effect.

Compound	Potency
COc1ccc(CC(=O)Nc2cccc(SC)c2)cc1OC	inconclusive: 25.9 µM [cytotoxic, single point]
CC(C)c1ccccc1-n1c(SCc2cc(=O)oc3ccc4ccccc4c23)nnc1-c1cccnc1	inconclusive: 29.1 µM [cytotoxic, single point]
CN(C)CCNc1ccc2nnn3c4ccc(O)cc4c(=O)c1c23	active: 7.31 µM
COc1ccc(C(C)=O)cc1CSc1nc2nc(C)cc(C)n2n1	inactive
C=CCN(c1ccccc1OC)S(=O)(=O)c1cccc(C(=O)NCC(c2ccc(OC)cc2)N2CCCC2)c1 (stereo not given)	inconclusive: 29.1 µM [cytotoxic, single point]
CCOC(=O)C1(CCc2ccccc2)CCN(Cc2cc(OC)c(OC)cc2OC)CC1	inconclusive: 29.1 µM [cytotoxic, single point]
COCCNC(=O)C1(C)CCCN(C(=O)c2ccc(N(C)C)cc2)C1 (stereo not given)	inactive
O=C(O)c1cnc(-c2ccccc2)nc1Oc1ccccc1	inconclusive: 29.1 µM [rising, single point]
OCc1ccccc1-c1cnc2sc(NCc3ccc(F)cc3)nn12	inactive
COc1ccc(-c2csc(NCCc3nc4cc(Cl)c(N5CCCCC5)cc4n3CCOCCO)n2)cc1	inactive
COC(=O)N/N=C/c1cn(CCCOc2ccc(C)cc2)c2ccccc12	inconclusive: 29.1 µM [cytotoxic, single point]
Cc1ccn2c(=O)c(C(=O)NC3CCCCC3C)c(O)nc2c1 (stereo not given)	inconclusive: 23.1 µM [cytotoxic, partial curve, poor fit]
Cc1ccc(NC(=O)C2CCN(c3ncnc4sc(C)c(C)c34)CC2)cc1S(=O)(=O)N(C)C	inconclusive: 29.1 µM [cytotoxic, single point]
NNc1nc(-c2ccccc2Cl)nc2sc3c(c12)CCCC3	inconclusive: 18.4 µM [cytotoxic, single point]
CC(=O)Nc1cccc(-c2ccnc3c2CC(C)(C(=O)NCc2ccc(F)c(F)c2)O3)c1 (stereo not given)	active: 14.6 µM
O=C(/C=C/c1ccco1)NC(=S)Nc1ccccc1	inactive
CCOc1ccc(NC(=O)Nc2nc(SCC)ns2)cc1	inconclusive: 20.6 µM [cytotoxic, single point]
CC(C)C1N=C2c3ccccc3N=C(SCC(=O)c3ccc(O)c(O)c3)N2C1=O (stereo not given)	active: 23.1 µM
CCOC(=O)C1=C(Nc2ccccc2)CC(C)(O)C(C(=O)OCC)C1c1ccc(Cl)cc1 (stereo not given)	inconclusive: 20.6 µM [cytotoxic, single point]
COc1ccc(C(=O)Nc2cc(-c3nc4ccccc4s3)ccc2OC)cc1	inconclusive: 23.1 µM [cytotoxic, partial curve, poor fit]

Shown in markdown: entries from further up

| Compound | Potency |
| --- | --- |
| C=CCN(c1ccccc1OC)S(=O)(=O)c1cccc(C(=O)NCC(c2ccc(OC)cc2)N2CCCC2)c1 (stereo not given) | inconclusive: 29.1 µM [cytotoxic, single point] |
| CCOC(=O)C1(CCc2ccccc2)CCN(Cc2cc(OC)c(OC)cc2OC)CC1 | inconclusive: 29.1 µM [cytotoxic, single point] |
